The target of the experiment is GβL (mouse (endogenous in mouse liver)) (UniProt Q9DCJ1). Kind of experiment: co-IP; lysate of fresh liver tissue of 2-month-old wild-type mice (1500 ug total protein, Pierce IP Lysis Buffer with protease inhibitors); antibodies against Ufl1, Ufbp1 or GβL, protein A/G plus agarose beads overnight at 4 °C; six washes in lysis buffer; western blot; IgG as negative control. A general note: A western blot detects proteins with antibodies after separation by electrophoresis.

Sequences of proteins named here, by UniProt entry; tags and fusion partners are left off.
UniProt Q9DCJ1: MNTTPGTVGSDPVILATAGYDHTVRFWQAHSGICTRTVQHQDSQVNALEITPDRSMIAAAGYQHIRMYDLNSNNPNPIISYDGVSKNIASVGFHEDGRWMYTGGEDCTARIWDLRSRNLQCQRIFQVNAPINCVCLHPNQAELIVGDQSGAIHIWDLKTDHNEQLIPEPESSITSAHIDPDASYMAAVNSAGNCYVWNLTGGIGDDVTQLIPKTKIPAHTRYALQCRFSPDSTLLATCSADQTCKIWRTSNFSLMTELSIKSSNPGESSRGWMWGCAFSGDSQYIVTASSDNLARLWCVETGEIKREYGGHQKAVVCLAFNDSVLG

These are yes or no findings as the source states them, for the method shown. In cells and extracts the contact can be indirect. Some binding calls cover weakened binding; strength is not graded here.

B1: Ufm1-specific ligase 1 (enzyme, UniProt Q8CCJ3 1-793)
chain: MADAWEEIRRLAADFQRAQFAESTQRLSERNCIEIVNKLISQKQLEVVHTLDGKEYITPAQISKEMRDELHVRGGRVNIVDLQQVINVDLTHIESRVSDIIKSEKHVQMVLGQLIDENYLDQLSEEVNDKLQESGQVTVSELCKAYDLPGDFLTQALTQRLGRIINGHLDLDNRGVIFTEAFVARHKARIRGLFSAITRPTPVNSLVSKYGFQEQLLYSVLEDLVSTGRLRGTVVGGRQDKAVFVPDIYSRTQSTWVDSFFRQNGYLEFDALSRLGIPDAVNYIKKRYKNTQLLFLKATCVGQGLVDQVEASVEEAISSGTWVDISPLLPSSLSVEDAAMLLQQVMRPFGKLASAIVFSDTVVVSEKFITDCTGLFSERMHQKAEKEMKNNPVHLITEEDLKQISILESVNTSKKDKKDERRKKATEGSGSVRGGGGGNAREYKIKKTKKKGRKDEDSDDESQSSHGGKKKPDITFMFQDEIEDCLRKHIQDAPEEFISELAEYLIKPLNKMYLEVVRSVFMSSTSASGTGRKRTIKDLQEEVSNLYNNIRLFEKGMKYFADDTQTALTKHLLKTVCTDITNLMFNFLASDFLMAVEEPAAITSDIRKKILSKLTEETKVALTKLHNSLNEKSIEDFLSCLDSATEACDIMVKKGDKKRERQILFQHRQALCEQLKVTEDPALILHLTAVLLFQLSTHSMLHAPGRCVPQIIAFLHSKIPEDQHTLLVKYQGLVVKQLVSQNKKTGQGEDPSSDELDKEQHDVTNATRKELQELSLSIKDLVLKSRKSSVTEE
With B1, the binding entry is listed as “binds”.

B2: Ufm1-binding protein 1 (protein, UniProt Q80WW9 1-315)
chain: MVGPWVYLVAAVLLIGLILFLTRSRGRAAAADGEPLHNEEERAGAGQVGRSLPQESEEQRTGSRPRRRRDLGSRLQAQRRAQRVAWEDGDENVGQTVIPAQEEEGIEKPAEVHPTGKIGAKKLRKLEEKQARKAQREAEEAEREERKRLESQREAEWKKEEERLRLKEEQKEEEERKAQEEQARREHEEYLKLKEAFVVEEEGVSETMTEEQSHSFLTEFINYIKKSKVVLLEDLAFQMGLRTQDAINRIQDLLTEGTLTGVIDDRGKFIYITPEELAAVANFIRQRGRVSITELAQASNSLISWGQDLPAQASA
Consider B2, for which the binding entry is reported as “binds”.

(Values after paper PMC10155312.)
